Publication PMC10338493

Protein sequences, listed by entry. Tags and fused reporters are not part of them. Residues count along the entry.
UniProt P26618, residues 25-1089: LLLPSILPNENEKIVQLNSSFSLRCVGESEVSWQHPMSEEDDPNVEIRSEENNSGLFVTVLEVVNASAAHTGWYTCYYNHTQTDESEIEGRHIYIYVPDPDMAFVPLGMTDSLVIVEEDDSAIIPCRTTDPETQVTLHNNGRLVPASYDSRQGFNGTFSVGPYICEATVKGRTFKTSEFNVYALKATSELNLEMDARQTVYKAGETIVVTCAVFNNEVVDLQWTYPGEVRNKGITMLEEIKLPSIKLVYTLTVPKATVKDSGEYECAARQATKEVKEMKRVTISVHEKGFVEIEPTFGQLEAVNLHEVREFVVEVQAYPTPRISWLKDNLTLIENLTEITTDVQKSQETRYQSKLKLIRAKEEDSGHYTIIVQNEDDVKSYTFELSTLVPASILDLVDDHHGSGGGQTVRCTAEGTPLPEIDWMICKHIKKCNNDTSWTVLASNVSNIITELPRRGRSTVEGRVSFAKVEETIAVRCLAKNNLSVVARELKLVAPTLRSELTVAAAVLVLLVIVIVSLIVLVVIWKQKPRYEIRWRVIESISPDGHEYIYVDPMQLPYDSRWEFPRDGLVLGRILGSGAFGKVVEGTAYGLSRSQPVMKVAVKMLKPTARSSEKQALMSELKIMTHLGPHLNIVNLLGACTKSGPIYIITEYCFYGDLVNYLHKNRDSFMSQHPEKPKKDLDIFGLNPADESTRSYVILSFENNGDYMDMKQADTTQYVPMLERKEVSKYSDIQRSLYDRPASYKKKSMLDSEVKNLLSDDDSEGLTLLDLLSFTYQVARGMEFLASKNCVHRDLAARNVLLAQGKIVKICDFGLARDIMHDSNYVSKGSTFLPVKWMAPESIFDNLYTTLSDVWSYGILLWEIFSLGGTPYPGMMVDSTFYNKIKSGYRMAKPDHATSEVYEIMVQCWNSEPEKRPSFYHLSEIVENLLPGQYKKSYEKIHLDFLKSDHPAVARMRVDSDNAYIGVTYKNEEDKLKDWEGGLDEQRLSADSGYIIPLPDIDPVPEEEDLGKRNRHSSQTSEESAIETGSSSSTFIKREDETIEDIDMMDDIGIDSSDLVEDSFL
UniProt P01127, residues 82-190: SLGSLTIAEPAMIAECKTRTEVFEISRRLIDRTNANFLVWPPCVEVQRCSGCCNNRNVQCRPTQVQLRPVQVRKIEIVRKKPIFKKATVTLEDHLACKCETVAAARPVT

Biological target: PDGF receptor Pdgfra on NIH 3T3 cells (mouse (endogenous in NIH 3T3)) (UniProt P26618)
Assay: cross-linking + affinity purification with mass spectrometry; Photo-IGC: purified ligand coupled to probe 1 (NHS ester), incubated with living cells in PBS at 4 °C for 10 min, 5 min UV (365 nm), streptavidin enrichment, LC-MS/MS, label-free comparison with a control (glycine, Tris, BSA or another ligand); only the binder purified

binding: binds
Substance: platelet-derived growth factor B (PDGF-B) (from UniProt P01127 82-190) (ligand)

No constants are given. Whether binding was seen depends on the method and setting. Binding seen in cells or lysates may run through a third protein. Here binding means that the protein was enriched with, or labelled near, the bait; the list need not be complete.
